We go through one molecule from patent publication US20030143656A1.

Protein sequences, listed by entry. Tags and fused reporters are not part of them. Lines headed by an entry give the natural chain unless they say otherwise; changes in a name come on top.
UniProt Q16513: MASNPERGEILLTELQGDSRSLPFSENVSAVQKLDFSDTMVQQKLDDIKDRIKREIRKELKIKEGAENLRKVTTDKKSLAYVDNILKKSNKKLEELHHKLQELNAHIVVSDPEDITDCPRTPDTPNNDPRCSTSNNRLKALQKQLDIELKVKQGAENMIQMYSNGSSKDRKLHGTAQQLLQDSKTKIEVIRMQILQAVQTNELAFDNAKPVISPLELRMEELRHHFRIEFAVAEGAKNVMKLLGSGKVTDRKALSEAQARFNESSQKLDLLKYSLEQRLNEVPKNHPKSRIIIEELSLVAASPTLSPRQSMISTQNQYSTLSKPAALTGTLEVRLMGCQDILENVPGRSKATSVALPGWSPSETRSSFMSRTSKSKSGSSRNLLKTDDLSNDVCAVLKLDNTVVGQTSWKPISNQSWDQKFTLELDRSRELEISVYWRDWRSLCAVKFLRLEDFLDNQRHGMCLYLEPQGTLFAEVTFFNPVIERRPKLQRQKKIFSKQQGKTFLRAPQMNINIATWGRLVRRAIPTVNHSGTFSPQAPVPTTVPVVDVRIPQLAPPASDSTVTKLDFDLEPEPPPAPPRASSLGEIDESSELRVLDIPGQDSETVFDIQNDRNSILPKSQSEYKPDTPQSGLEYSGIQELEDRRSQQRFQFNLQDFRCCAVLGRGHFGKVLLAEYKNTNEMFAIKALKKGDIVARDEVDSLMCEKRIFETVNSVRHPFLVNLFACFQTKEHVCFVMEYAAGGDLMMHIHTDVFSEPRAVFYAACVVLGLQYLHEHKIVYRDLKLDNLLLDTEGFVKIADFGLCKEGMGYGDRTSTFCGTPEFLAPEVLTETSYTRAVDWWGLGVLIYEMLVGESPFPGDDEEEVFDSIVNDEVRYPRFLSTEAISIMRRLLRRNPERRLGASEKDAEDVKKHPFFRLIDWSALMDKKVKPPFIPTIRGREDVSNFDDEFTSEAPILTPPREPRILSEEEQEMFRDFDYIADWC

The experiment concerns the target GST-PIF (human) (UniProt Q16513). Briefly: GST-PIF pull-down from co-transfected 293 cells, anti-Myc blot.

These are yes or no findings as the source states them, for the method shown. In cells and extracts the contact can be indirect. Some results given as binding are weak or reduced against the parent protein; the word gives no strength. Tags and fused reporters may be left off the sequences shown.

B1: Myc-PDK1 (wild type) (enzyme, human, UniProt O15530 1-556, looked up, not shown: small tags and cut ends)
chain: MARTTSQLYDAVPIQSSVVLCSCPSPSMVRTQTESSTPPGIPGGSRQGPAMDGTAAEPRPGAGSLQHAQPPPQPRKKRPEDFKFGKILGEGSFSTVVLARELATSREYAIKILEKRHIIKENKVPYVTRERDVMSRLDHPFFVKLYFTFQDDEKLYFGLSYAKNGELLKYIRKIGSFDETCTRFYTAEIVSALEYLHGKGIIHRDLKPENILLNEDMHIQITDFGTAKVLSPESKQARANSFVGTAQYVSPELLTEKSACKSSDLWALGCIIYQLVAGLPPFRAGNEYLIFQKIIKLEYDFPEKFFPKARDLVEKLLVLDATKRLGCEEMEGYGPLKAHPFFESVTWENLHQQTPPKLTAYLPAMSEDDEDCYGNYDNLLSQFGCMQVSSSSSSHSLSASDTGLPQRSGSNIEQYIHDLDSNSFELDLQFSEDEKRLLLEKQAGGNPWHQFVENNLILKMGPVDKRKGLFARRRQLLLTEGPHLYYVDPVNKVLKGEIPWSQELRPEAKNFKTFFVHTPNRTYYLMDPSGNAHKWCRKIQEVWRQRYQSHPDAAVQ
B1: the binding result is “binds”.
